PubChem BioAssay AID652243 | Drosophila RNAi Screening Center | 2013
The deposit covers about 24,000 reagents; shown is a random part of those that have a named target and a result. Over the whole deposit, 246 (1%) were called active. 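Plates not normalised; calls are printed but the firefly/Renilla ratio behind them is not deposited; fold cut for lowering reported inconsistently.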 Raw values are not corrected between plates. Reagents against one gene are numbered here. A plus sign joins genes that one reagent is predicted to hit. Not given: the amount of reagent.

- Aim: 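Fly genes required for human androgen receptor driven transcription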 (primary screen)
- Cells: Drosophila S2R+ cells
- Knock-down reagent: long dsRNA against Drosophila genes
- Timing: 72 h (48 h, then 24 h hormone)
- Challenge: synthetic androgen R1881 at 10 nM for 24 h
- Measured: 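Firefly light from an androgen-responsive reporter and Renilla control light per well, raw and unnormalised, for each of two replicates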
- Scale: firefly reporter light: higher = more light from androgen-responsive reporter; Renilla control light: higher = more constitutive control signal (cell number, transfection)
- Call rule: 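Across duplicate plates, a knock-down whose log firefly/Renilla ratio shifted a set fold down or up from the GFP/LacZ control mean was a hit; the downward cut appears as both 1.5 and 3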
- Meaning of the calls: active = hit: reporter lowered or raised; inactive = no hit

gene knocked down	dsRNA no.	firefly reporter light, replicate 1	firefly reporter light, replicate 2	Renilla control light, replicate 1	Renilla control light, replicate 2	Call
Cep164	1	4.96e5	2.91e5	3.81e6	2.76e6	inactive
Pde8	1	7.13e5	8.52e5	1.21e6	1.84e6	inactive
Pde8	2	6.85e5	7.48e5	9.09e5	1.19e6	inactive
Sur	1	8.69e5	7.46e5	1.22e6	8.73e5	inactive
Sur	2	3.91e5	2.15e5	5.62e5	3.83e5	inactive
CG34006 (retired record)	1	7.78e5	6.89e5	2.06e6	1.55e6	inactive
hbs	1	1.34e5	1.27e5	3.57e6	3.57e6	inactive
Cpr65Ea	1	2.19e5	1.20e5	2.56e6	1.97e6	inactive
Cpr65Ea	2	7.02e5	7.58e5	1.06e6	1.13e6	inactive
CG15927	1	2.16e5	2.08e5	3.77e6	3.66e6	inactive
CG15927	2	5.07e5	5.28e5	1.68e6	1.31e6	inactive
Alg3	1	1.12e6	2.87e5	1.94e6	7.71e5	inactive
Drep2	1	1.06e6	9.81e5	1.49e6	1.57e6	inactive
Drep2	2	7.70e5	4.96e5	1.75e6	5.06e5	inactive
Hpf1	1	35476	74333	4.14e5	3.14e5	inactive
CG14191	1	5.39e5	3.79e5	7.49e5	3.90e5	inactive
CG14191	2	1.12e6	1.12e6	1.10e6	8.51e5	inactive
CG12895	1	4.39e5	2.93e5	3.24e6	2.48e6	inactive
CG12895	2	7.19e5	9.48e5	1.29e6	1.06e6	inactive
GstE7	1	8.09e5	6.95e5	2.20e6	2.41e6	inactive
Ddrgk1	1	1.31e5	83433	8.64e5	7.75e5	inactive
Ddrgk1	2	2.90e5	1.70e5	4.85e5	5.78e5	inactive
Scox	1	2.11e5	1.08e5	1.95e6	1.16e6	inactive
Scox	2	4.60e5	4.44e5	5.51e5	6.06e5	inactive
CG34135 + Nasp + CG11768	1	73603	63334	1.16e6	1.22e6	inactive
CG34135 + Nasp + CG11768	2	7.70e5	8.45e5	1.73e6	2.05e6	inactive
CG34135 + Nasp + CG11768	3	3.18e5	3.29e5	5.03e5	6.87e5	inactive
CG34135 + Nasp + CG11768	4	7.76e5	8.24e5	1.29e6	1.29e6	inactive
CG12605	1	1.11e5	1.58e5	7.19e5	1.74e6	inactive
CG12605	2	8.54e5	6.59e5	1.63e6	1.76e6	inactive
CG12605	3	1.10e6	7.96e5	2.18e6	2.13e6	inactive
ND-B18	1	3.72e5	4.19e5	3.02e6	3.28e6	inactive
ND-B18	2	1.85e5	1.70e5	5.61e5	5.97e5	inactive
yl	1	3.24e5	3.57e5	3.11e6	3.02e6	inactive
yl	2	5.09e5	4.90e5	9.56e5	1.25e6	inactive
Pih1D1	1	7.16e5	7.80e5	2.28e6	1.95e6	inactive
Pih1D1	2	7.11e5	1.32e6	1.24e6	1.71e6	inactive
KP78a + KP78b	1	91601	1.12e5	1.48e6	1.26e6	inactive
KP78a + KP78b	2	1.20e5	1.09e5	2.36e6	2.03e6	inactive
CG9449	1	1.59e5	1.52e5	2.32e6	1.99e6	inactive
CG9449	2	8.73e5	8.80e5	1.06e6	1.29e6	inactive
CG14223	1	1.37e5	1.04e5	3.44e5	2.38e5	inactive
CG14223	2	5.98e5	7.05e5	8.56e5	9.18e5	inactive
eloF	1	84087	99369	1.70e6	2.12e6	inactive
eloF	2	8.90e5	1.16e6	8.03e5	8.02e5	inactive
CG12699	1	8.16e5	8.03e5	1.89e6	1.51e6	inactive
CG12699	2	1.44e6	1.08e6	1.31e6	9.22e5	inactive
Exn	1	22438	18295	2.72e5	2.45e5	inactive
Exn	2	1.93e5	1.71e5	1.74e6	1.46e6	inactive
Exn	3	7.64e5	7.07e5	9.86e5	8.60e5	inactive
Exn	4	7.94e5	8.90e5	1.02e6	1.09e6	inactive
glob2	1	48864	60096	1.48e6	1.28e6	inactive
CG10435	1	18885	27062	3.03e5	4.43e5	inactive
CG10435	2	8.61e5	1.02e6	9.71e5	1.07e6	inactive
TfIIA-S-2	1	2.33e5	2.73e5	4.71e6	3.39e6	inactive
Mnt	1	30670	33321	7.75e5	4.42e5	active
Mnt	2	1.84e5	2.71e5	3.46e6	2.91e6	inactive
CG6974	1	1.12e5	69462	1.95e6	1.52e6	inactive

3 of these entries, reformatted:
| gene knocked down | dsRNA no. | firefly reporter light, replicate 1 | firefly reporter light, replicate 2 | Renilla control light, replicate 1 | Renilla control light, replicate 2 | Call |
| --- | --- | --- | --- | --- | --- | --- |
| TfIIA-S-2 | 1 | 2.33e5 | 2.73e5 | 4.71e6 | 3.39e6 | inactive |
| Mnt | 1 | 30670 | 33321 | 7.75e5 | 4.42e5 | active |
| Mnt | 2 | 1.84e5 | 2.71e5 | 3.46e6 | 2.91e6 | inactive |
